Test results published in paper doi:10.1101/575241.

Tests used:
[1] = biological target: ^GSTPib1ΔFYVE (S. cerevisiae); assay: pull-down
[2] = biological target: S. pombe Pib1 (aa 123-279) (S. pombe); assay: two-hybrid

Binder | binding [1] | binding [2]
^HisUbc13 (enzyme, UniProt P52490 1-153) MASLPKRIIKETEKLVSDPVPGITAEPHDDNLRYFQVTIEGPEQSPYEDGIFELELYLPDDYPMEAPKVRFLTKIYHPNIDRLGRICLDVLKTNWSPALQIRTVLLSIQALLASPNPNDPLANDVAEDWIKNEQGAKAKAREWTKLYAKKKPE | binds | 
Ubc13 (enzyme, UniProt P52490 1-153) MASLPKRIIKETEKLVSDPVPGITAEPHDDNLRYFQVTIEGPEQSPYEDGIFELELYLPDDYPMEAPKVRFLTKIYHPNIDRLGRICLDVLKTNWSPALQIRTVLLSIQALLASPNPNDPLANDVAEDWIKNEQGAKAKAREWTKLYAKKKPE |  | binds
Mms2 (protein, UniProt P53152 1-137) MSKVPRNFRLLEELEKGEKGFGPESCSYGLADSDDITMTKWNGTILGPPHSNHENRIYSLSIDCGPNYPDSPPKVTFISKINLPCVNPTTGEVQTDFHTLRDWKRAYTMETLLLDLRKEMATPANKKLRQPKEGETF |  | binds weakly
^HisCdc34 (enzyme, UniProt P14682 1-295) MSSRKSTASSLLLRQYRELTDPKKAIPSFHIELEDDSNIFTWNIGVMVLNEDSIYHGGFFKAQMRFPEDFPFSPPQFRFTPAIYHPNVYRDGRLCISILHQSGDPMTDEPDAETWSPVQTVESVLISIVSLLEDPNINSPANVDAAVDYRKNPEQYKQRVKMEVERSKQDIPKGFIMPTSESAYISQSKLDEPESNKDMADNFWYDSDLDDDENGSVILQDDDYDDGNNHIPFEDDDVYNYNDNDDDDERIEFEDDDDDDDDSIDNDSVMDRKQPHKAEDESEDVEDVERVSKKI | no binding (tested: 100 pmol) | 

No constants are given. Whether binding was seen depends on the method and setting. Binding can be weak; no strength is given. For some of these results: Where a sequence is shown, tags or fusion partners need not be part of it.
